Laboratory results: PubChem BioAssay AID652243 (Drosophila RNAi Screening Center, 2013)
Assay: 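Fly genes required for human androgen receptor driven transcription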 (primary screen). System: Drosophila S2R+ cells. Knock-down reagent: long dsRNA against Drosophila genes. Time to read-out: 72 h (48 h, then 24 h hormone). Treatment: synthetic androgen R1881 at 10 nM for 24 h. Measured: 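Firefly light from an androgen-responsive reporter and Renilla control light per well, raw and unnormalised, for each of two replicates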. Direction: firefly reporter light: higher = more light from androgen-responsive reporter; Renilla control light: higher = more constitutive control signal (cell number, transfection). Hit rule: 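Hit when the log firefly-to-Renilla ratio dropped or increased by a fixed fold versus the mean of GFP or LacZ controls across duplicate plates; lowering cut given as 1.5 and as 3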. Calls: active = hit: reporter lowered or raised; inactive = no hit.
In all, the deposit lists about 24,000 reagents; this is an unselected part of those with a known target gene and a result. Over the whole deposit, 246 (1%) were called active. 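Plates not normalised; calls are printed but the firefly/Renilla ratio behind them is not deposited; fold cut for lowering reported inconsistently.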 Raw values vary from plate to plate and are shown uncorrected. The numbers tell different reagents against one gene apart. Names joined by + are all predicted targets of the reagent. Reagent sequences are not shown. Not stated in the record: the amount of reagent.

firefly reporter light, replicate 1 | firefly reporter light, replicate 2 | Renilla control light, replicate 1 | Renilla control light, replicate 2 | activity call | gene knocked down | reagent no.
96834 | 81082 | 1.69e6 | 1.70e6 | inactive | Fak | 1
2.50e5 | 3.23e5 | 8.50e5 | 7.26e5 | inactive | Fak | 2
– | – | – | – | inactive | Fak | 3
– | – | – | – | inactive | Fak | 4
2.72e5 | 2.47e5 | 2.42e6 | 2.27e6 | inactive | CG32052 | 1
3.02e5 | 2.70e5 | 6.95e5 | 7.30e5 | inactive | CG32052 | 2
8.39e5 | 9.84e5 | 2.86e6 | 1.96e6 | inactive | ebi | 1
1.34e5 | 1.17e5 | 5.53e5 | 6.90e5 | inactive | CG1703 | 1
36015 | 51833 | 5.96e5 | 4.74e5 | inactive | CG9368 | 1
1.17e6 | 9.88e5 | 1.40e6 | 1.10e6 | inactive | CG9368 | 2
3.33e5 | 3.88e5 | 2.25e6 | 2.01e6 | inactive | sle + CG12592 | 1
2.86e5 | 2.35e5 | 5.34e5 | 5.17e5 | inactive | sle + CG12592 | 2
2.23e5 | 1.67e5 | 9.03e5 | 7.69e5 | inactive | x16 | 1
5.38e5 | 7.99e5 | 1.51e6 | 2.02e6 | inactive | x16 | 2
4.45e5 | 3.81e5 | 1.19e6 | 6.68e5 | inactive | x16 | 3
5.49e5 | 4.59e5 | 3.78e6 | 2.83e6 | inactive | CG11106 | 1
23981 | 15964 | 1.52e5 | 83812 | inactive | Zcchc7 | 1
7.29e5 | 8.45e5 | 8.62e5 | 1.03e6 | inactive | Zcchc7 | 2
2.65e5 | 2.62e5 | 5.44e5 | 7.79e5 | inactive | CG33191 | 1
1.54e5 | 2.02e5 | 1.94e6 | 1.99e6 | inactive | CG10182 | 1
1.07e6 | 9.22e5 | 1.80e6 | 1.86e6 | inactive | CG10182 | 2
7.42e5 | 4.80e5 | 1.50e6 | 1.70e6 | inactive | CG10182 | 3
94278 | 75022 | 7.04e5 | 5.53e5 | inactive | CG7896 | 1
2.91e5 | 2.28e5 | 3.06e6 | 3.03e6 | inactive | Gos28 | 1
4.98e5 | 8.10e5 | 9.80e5 | 1.90e6 | inactive | Gos28 | 2
1.15e5 | 1.02e5 | 9.79e5 | 7.77e5 | inactive | ttm50 | 1
1.89e5 | 2.65e5 | 5.03e5 | 6.57e5 | inactive | Hcs | 1
79675 | 55855 | 1.13e6 | 8.86e5 | inactive | Hcs | 2
1.22e5 | 2.29e5 | 7.39e5 | 6.85e5 | inactive | CG32985 | 1
6.83e5 | 6.63e5 | 8.54e5 | 9.99e5 | inactive | CG32985 | 2
1.23e5 | 1.12e5 | 5.82e5 | 5.56e5 | inactive | CG1314 | 1
70523 | 1.60e5 | 1.06e6 | 1.51e6 | inactive | CG5592 | 1
99925 | 95104 | 7.37e5 | 4.52e5 | inactive | Tace | 1
7.65e5 | 5.57e5 | 2.11e6 | 2.06e6 | inactive | Atg18b | 1
4.54e5 | 4.37e5 | 1.68e6 | 1.49e6 | inactive | Atg18b | 2
2.95e5 | 2.89e5 | 3.28e6 | 3.41e6 | inactive | CG12995 | 1
2.64e5 | 2.58e5 | 5.37e5 | 8.79e5 | inactive | CG12995 | 2
69611 | 59539 | 4.26e5 | 3.89e5 | inactive | Gcn2 | 1
– | – | – | – | inactive | Gcn2 | 2
1.65e5 | 1.47e5 | 1.97e6 | 1.19e6 | inactive | Rpn12R | 1

As entered above.
sle + CG12592 #2, firefly reporter light, replicate 1: 2.86e5
Tace, firefly reporter light, replicate 2 → 95104
Under “firefly reporter light, replicate 2”, CG11106 shows 4.59e5
For “Renilla control light, replicate 2”, sle + CG12592 #1 shows 2.01e6
